Earlier results, collected in patent US20230295137A1, “COVALENT EGFR INHIBITORS AND METHODS OF USE THEREOF” (DANA-FARBER CANCER INSTITUTE, INC., priority 2020, published 2023).
For at least one compound, name, drawing or mass did not settle the structure.

Tested on: NSCLC that have developed resistance to gefitinib or erlotinib
Settings: patients with NSCLC that have developed resistance to gefitinib or erlotinib; cited from earlier work

SMILES: CN(C)C/C=C/C(=O)Nc1cc2c(Nc3ccc(F)c(Cl)c3)ncnc2cc1O[C@H]1CCOC1 [afatinib]
- RR (response rate): less than 10%
